Source: patent US8110187
Results are given in words; binding and its absence hold for the method and conditions named. Some results given as binding are weak or reduced against the parent protein; the word gives no strength.

Chains of the proteins cited; added tags and fusions are not shown. Lines headed by an entry give the natural chain unless they say otherwise; changes in a name come on top.
UniProt P29460: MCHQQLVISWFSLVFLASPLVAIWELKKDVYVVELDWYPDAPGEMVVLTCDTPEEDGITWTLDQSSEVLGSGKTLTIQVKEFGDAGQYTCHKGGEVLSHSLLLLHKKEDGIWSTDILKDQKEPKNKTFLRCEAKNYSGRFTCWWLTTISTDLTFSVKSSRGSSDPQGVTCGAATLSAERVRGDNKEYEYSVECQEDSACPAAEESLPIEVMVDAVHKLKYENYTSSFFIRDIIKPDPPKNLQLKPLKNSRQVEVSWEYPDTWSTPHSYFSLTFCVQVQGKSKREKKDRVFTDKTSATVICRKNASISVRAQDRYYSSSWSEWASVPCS
UniProt P29459: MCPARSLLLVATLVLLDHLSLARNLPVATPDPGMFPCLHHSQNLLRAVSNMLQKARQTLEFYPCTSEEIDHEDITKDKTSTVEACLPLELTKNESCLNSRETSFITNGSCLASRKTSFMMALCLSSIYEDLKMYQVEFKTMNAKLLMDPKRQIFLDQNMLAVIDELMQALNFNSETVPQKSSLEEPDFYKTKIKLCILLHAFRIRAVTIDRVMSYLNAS

Target: free 40 kDa subunit of CLMF (non-reduced) (human) (UniProt P29460)
Assay: SDS-PAGE under reducing and non-reducing conditions

binding: binds
Substance: 35 kDa subunit of CLMF (from UniProt P29459 23-219) (ligand)
